Measurements taken from the supplement of paper PMC10849652.
This is one part of the list. Residues, ends and D or L forms follow the SMILES beside them. *: point of attachment. Cbz = O=C(OCc1ccccc1)*

By UniProt entry, the sequences of proteins in these tests, tags left out. Where a name states a change or a piece, a line headed by the entry shows the natural chain unless it says otherwise.
UniProt O75506: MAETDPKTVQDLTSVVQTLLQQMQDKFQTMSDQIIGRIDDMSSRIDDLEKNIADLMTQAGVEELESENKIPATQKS
UniProt Q9NZL4: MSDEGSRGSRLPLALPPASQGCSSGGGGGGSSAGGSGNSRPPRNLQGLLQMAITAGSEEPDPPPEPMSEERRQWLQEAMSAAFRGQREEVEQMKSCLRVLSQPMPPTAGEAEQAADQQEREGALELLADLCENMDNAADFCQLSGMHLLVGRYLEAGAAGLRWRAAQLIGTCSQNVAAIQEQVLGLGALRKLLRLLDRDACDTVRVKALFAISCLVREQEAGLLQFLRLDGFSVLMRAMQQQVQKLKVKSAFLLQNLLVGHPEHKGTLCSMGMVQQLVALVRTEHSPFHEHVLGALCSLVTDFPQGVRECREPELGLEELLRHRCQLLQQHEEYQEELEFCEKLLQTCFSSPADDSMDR
UniProt Q92902: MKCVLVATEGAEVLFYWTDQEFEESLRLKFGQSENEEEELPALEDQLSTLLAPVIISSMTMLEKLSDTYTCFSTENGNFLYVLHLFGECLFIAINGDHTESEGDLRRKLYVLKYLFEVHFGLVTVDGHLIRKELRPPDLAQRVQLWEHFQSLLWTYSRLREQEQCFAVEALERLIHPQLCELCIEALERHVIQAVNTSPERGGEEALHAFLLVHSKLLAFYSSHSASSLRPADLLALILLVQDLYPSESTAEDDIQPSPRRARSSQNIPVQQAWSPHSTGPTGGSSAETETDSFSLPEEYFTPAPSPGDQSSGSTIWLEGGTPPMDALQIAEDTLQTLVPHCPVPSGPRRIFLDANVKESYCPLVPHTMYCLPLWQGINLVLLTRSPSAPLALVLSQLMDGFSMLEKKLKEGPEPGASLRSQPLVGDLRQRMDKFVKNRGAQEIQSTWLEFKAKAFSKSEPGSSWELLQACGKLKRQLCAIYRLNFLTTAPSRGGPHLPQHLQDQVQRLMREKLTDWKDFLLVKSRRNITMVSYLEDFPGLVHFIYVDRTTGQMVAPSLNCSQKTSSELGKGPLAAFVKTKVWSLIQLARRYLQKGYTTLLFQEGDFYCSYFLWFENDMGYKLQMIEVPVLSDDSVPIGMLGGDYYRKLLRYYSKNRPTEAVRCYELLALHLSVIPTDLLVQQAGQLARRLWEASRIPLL
UniProt Q659A1: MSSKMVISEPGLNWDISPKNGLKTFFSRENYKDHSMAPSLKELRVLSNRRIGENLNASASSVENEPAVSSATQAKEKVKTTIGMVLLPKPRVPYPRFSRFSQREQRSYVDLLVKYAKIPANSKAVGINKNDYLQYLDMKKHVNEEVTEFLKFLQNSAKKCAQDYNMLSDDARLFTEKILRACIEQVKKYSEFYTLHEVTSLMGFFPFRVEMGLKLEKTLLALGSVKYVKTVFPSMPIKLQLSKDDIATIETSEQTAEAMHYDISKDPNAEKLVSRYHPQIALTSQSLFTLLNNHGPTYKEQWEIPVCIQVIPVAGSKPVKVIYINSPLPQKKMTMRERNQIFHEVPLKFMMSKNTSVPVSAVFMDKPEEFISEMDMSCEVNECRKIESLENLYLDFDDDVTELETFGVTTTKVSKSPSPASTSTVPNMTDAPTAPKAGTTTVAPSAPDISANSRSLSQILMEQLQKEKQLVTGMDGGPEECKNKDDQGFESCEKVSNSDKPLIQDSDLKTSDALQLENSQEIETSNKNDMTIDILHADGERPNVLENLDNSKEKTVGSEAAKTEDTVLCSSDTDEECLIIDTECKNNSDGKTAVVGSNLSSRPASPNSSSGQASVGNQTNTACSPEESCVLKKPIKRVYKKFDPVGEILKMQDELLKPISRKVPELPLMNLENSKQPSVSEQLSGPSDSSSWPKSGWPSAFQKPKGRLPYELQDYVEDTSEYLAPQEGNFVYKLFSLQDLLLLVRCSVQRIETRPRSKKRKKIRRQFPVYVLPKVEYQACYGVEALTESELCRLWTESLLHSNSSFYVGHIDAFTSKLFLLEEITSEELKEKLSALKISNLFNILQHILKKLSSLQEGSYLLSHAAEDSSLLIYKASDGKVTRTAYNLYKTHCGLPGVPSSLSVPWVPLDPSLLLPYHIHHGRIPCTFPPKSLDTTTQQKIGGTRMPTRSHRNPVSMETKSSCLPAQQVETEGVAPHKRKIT
UniProt Q00613: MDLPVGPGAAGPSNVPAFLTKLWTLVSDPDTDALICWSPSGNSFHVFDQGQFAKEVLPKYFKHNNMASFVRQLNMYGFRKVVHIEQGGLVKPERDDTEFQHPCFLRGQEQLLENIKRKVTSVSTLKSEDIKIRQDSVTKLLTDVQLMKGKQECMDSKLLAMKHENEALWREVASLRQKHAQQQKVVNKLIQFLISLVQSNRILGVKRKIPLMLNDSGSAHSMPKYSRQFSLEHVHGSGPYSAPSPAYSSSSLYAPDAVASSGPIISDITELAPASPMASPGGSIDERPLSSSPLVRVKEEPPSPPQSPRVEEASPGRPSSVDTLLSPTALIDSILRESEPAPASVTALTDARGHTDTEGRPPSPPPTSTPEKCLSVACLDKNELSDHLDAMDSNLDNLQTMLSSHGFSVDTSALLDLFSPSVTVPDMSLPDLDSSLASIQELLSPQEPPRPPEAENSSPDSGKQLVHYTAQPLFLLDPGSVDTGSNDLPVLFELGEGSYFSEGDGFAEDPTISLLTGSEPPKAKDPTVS
UniProt Q9NWY4: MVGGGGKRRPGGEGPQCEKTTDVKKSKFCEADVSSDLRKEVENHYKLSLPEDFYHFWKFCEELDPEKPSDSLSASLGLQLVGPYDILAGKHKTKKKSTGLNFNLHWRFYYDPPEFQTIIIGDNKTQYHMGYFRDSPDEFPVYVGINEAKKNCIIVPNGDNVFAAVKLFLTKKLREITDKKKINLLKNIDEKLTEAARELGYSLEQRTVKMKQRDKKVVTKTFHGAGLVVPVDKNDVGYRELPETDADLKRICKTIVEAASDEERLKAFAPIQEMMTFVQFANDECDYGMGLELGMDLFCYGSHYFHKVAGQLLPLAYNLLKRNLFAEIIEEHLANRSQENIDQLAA
UniProt Q9UJC3, whole entry, looked up: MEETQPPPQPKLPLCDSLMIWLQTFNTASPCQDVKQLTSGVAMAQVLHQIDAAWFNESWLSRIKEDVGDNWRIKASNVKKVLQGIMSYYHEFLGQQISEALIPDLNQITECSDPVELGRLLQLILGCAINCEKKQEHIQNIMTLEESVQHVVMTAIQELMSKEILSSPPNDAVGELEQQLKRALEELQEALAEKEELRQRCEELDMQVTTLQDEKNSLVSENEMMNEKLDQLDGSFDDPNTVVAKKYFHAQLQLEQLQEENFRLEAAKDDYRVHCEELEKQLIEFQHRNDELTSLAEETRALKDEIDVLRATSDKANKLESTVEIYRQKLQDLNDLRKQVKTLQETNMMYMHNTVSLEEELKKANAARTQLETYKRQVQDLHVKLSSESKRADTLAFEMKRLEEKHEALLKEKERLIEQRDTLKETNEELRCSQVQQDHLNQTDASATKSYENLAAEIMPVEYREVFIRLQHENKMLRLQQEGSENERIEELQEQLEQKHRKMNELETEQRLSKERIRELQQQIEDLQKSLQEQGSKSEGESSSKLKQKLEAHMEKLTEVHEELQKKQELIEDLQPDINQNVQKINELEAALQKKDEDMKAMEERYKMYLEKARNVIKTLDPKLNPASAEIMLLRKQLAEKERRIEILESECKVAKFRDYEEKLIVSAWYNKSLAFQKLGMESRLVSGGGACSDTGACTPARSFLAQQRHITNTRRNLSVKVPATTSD
UniProt Q05084: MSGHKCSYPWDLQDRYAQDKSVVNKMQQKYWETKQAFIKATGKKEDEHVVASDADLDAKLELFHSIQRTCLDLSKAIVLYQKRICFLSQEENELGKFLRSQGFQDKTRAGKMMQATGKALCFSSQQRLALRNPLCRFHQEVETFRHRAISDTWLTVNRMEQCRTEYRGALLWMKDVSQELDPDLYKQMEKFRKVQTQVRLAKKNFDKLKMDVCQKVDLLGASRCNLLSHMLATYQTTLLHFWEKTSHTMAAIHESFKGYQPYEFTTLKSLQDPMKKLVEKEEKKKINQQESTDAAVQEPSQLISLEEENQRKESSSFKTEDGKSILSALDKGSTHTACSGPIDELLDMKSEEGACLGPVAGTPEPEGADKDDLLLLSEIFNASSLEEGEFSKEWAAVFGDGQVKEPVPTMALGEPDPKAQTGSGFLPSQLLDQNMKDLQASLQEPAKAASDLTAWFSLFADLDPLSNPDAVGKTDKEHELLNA
UniProt Q9UGU5: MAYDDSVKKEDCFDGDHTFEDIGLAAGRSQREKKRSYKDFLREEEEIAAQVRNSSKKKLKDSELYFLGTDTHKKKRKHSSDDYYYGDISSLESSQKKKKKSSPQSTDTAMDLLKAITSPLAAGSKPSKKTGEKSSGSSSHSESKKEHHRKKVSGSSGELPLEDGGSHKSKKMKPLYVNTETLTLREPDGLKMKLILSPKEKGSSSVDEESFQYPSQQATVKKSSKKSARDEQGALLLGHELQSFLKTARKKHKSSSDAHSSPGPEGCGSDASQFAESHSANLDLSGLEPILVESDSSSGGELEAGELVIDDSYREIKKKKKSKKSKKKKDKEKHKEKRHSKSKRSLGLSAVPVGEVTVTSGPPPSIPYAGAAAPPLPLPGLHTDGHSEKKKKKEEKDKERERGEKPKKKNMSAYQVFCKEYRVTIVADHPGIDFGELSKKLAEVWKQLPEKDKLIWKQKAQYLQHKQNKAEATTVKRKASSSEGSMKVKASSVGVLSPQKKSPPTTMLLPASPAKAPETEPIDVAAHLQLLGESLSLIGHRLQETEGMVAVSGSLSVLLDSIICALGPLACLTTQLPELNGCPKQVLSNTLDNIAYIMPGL
UniProt Q96EW2: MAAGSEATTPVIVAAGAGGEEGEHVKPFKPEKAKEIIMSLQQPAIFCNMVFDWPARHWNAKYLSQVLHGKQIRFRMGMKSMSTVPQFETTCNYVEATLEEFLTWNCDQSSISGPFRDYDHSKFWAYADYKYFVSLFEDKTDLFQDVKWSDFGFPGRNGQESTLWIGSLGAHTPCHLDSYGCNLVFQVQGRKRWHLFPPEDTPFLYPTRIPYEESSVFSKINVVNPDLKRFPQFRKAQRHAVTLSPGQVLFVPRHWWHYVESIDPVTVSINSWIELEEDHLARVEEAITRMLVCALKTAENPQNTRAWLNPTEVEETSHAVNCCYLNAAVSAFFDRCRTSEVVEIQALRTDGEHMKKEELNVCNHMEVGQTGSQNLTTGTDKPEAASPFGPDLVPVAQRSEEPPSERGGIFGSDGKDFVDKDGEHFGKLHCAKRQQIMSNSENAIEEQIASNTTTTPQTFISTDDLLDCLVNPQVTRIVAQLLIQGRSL
UniProt Q8IWL3: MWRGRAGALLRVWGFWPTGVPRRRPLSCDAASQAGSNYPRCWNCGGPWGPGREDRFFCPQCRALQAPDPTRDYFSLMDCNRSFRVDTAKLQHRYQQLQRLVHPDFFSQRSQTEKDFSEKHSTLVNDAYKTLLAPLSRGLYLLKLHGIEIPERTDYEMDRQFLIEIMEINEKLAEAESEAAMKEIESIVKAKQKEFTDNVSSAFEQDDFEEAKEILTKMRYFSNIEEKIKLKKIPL
UniProt Q9NSB8: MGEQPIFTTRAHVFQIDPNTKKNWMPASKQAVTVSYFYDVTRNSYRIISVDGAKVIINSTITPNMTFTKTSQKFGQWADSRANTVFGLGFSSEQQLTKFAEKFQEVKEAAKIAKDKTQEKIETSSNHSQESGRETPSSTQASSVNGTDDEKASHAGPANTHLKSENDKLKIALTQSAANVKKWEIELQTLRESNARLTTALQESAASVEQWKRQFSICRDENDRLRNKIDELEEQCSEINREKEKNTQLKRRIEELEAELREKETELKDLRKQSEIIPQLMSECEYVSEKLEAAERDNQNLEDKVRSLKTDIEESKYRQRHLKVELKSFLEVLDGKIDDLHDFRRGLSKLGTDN
UniProt Q9NQG7: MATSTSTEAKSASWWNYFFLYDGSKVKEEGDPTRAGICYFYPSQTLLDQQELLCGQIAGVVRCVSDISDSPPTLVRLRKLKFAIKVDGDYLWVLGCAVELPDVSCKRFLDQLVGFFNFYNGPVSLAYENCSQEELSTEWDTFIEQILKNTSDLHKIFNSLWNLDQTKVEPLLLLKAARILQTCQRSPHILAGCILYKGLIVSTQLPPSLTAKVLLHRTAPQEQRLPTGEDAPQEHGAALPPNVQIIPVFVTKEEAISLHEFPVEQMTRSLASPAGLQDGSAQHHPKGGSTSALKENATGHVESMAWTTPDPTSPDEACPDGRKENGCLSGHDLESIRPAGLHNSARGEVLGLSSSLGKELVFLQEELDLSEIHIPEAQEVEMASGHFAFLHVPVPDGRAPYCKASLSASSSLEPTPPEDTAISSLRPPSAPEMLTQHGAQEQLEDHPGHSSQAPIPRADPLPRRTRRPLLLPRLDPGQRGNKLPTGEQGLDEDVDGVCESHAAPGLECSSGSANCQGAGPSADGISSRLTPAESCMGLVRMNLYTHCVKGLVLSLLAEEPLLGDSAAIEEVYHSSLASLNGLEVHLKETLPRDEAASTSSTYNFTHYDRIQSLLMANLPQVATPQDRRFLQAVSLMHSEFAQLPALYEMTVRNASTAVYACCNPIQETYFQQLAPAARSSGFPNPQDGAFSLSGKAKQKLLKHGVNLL

Legend:
Test in all cases: log2 fold change, soluble protein after heating vs DMSO (PISA); higher = thermal stabilisation; K562 cells, 10 uM, 30 min; active = over 0.2 and 3.5 SD of the protein, either way, in both replicates (recomputed)
ibrutinib = compound: C=CC(=O)N1CCC[C@@H](n2nc(-c3ccc(Oc4ccccc4)cc3)c3c(N)ncnc32)C1 [ibrutinib]
Summary of the method: (§1)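 Aliquots of K562 cells (2×10^6 cells/mL) treated with 10 μM compound for 30 min were heated for 3 min over 48°C-58°C. After pooling and extraction in PBS with 0.5% NP-40 at 4°C, soluble protein from a 21,000xg, 90 min spin was quantified by TMTpro 16plex LC-MS/MS with channel sums equalised. Thermal stability is expressed against control samples, from duplicates, as a log2 fold change.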

[1] = compound: CC1=C(C(CC(=O)N1)C2=CC=C(C=C2)C(F)(F)F)C(=O)NC3=C(C=C4C(=C3)C=NN4)F
Summary of the method: as §1

barasertib = compound: CCN(CCCOc1ccc2c(Nc3cc(CC(=O)Nc4cccc(F)c4)[nH]n3)ncnc2c1)CCOP(=O)(O)O [barasertib]
Summary of the method: as §1

[2] = compound: CC(C)(O)CC(=O)NCCn1ccc2ncnc(Nc3ccc(Oc4cccc(C(F)(F)F)c4)c(Cl)c3)c21
Summary of the method: as §1

Nexturastat A = compound: CCCCN(Cc1ccc(C(=O)NO)cc1)C(=O)Nc1ccccc1 [Nexturastat A]
Summary of the method: as §1

IRAK-1-4 Inhibitor I = compound: C1COCCN1CCN2C3=CC=CC=C3N=C2NC(=O)C4=CC(=CC=C4)[N+](=O)[O-] [IRAK-1-4 Inhibitor I]
Summary of the method: as §1

pinometostat = compound: CC(C)N(C[C@H]1O[C@@H](n2cnc3c(N)ncnc32)[C@H](O)[C@@H]1O)[C@H]1C[C@@H](CCc2nc3cc(C(C)(C)C)ccc3[nH]2)C1 [pinometostat]
Summary of the method: as §1

[3] = compound: CC1=C(C2=C(C=C1)C(=O)C3=CC=CC=C3N2CCCN)C
Summary of the method: as §1

[4] = compound: CC1=CC=C(C=C1)SC2=C3C=C(SC3=CN=C2)C(=O)N
Summary of the method: as §1

[5] = compound: CC1=NC(=CC=C1)C2=C(N=C(N2)C(C)(C)C)C3=CC4=NC=CN=C4C=C3
Summary of the method: as §1

[6] = compound: CCCS(=O)(=O)Nc1ccc(F)c(C(=O)c2c[nH]c3ncc(Cl)cc23)c1F
Summary of the method: as §1

[7] = compound: CC(=O)c1cnc2ccc(-c3cc(Cl)c(O)c(Cl)c3)nc2c1N[C@H]1CC[C@H](CN(C)C)CC1
Summary of the method: as §1

ralimetinib = compound: CC(C)(C)Cn1c(N)nc2ccc(-c3[nH]c(C(C)(C)C)nc3-c3ccc(F)cc3)nc21 [ralimetinib]
Summary of the method: as §1

[8] = compound: CC(C)C1=C2N=C(C=C(N2N=C1)NCC3=CC=CC=C3)NCCCCCCN
Summary of the method: as §1

[9] = compound: CC(C)C[C@@H](C=O)NC(=O)[C@H](CC(C)C)NC(=O)[C@H](CC(C)C)NC(=O)OCc1ccccc1
Summary of the method: as §1

[10] = compound: CC1=C(C=C(C=C1)NC(=O)C2=CC(=CC=C2)C(C)(C)C#N)NC3=CC4=C(C=C3)N=CN(C4=O)C
Summary of the method: as §1

[11] = compound: CC1=C(C=C(C=C1)NC(=O)C2=CC(=CC=C2)N(C)C)NC(=O)C3=CC=C(C=C3)O
Summary of the method: as §1

[12] = compound: CCCc1cc(C)[nH]c(=O)c1CNC(=O)c1cc(-c2ccnc(N3CCN(C)CC3)c2)cc2c1cnn2C(C)C
Summary of the method: as §1

givinostat = compound: CCN(CC)Cc1ccc2cc(COC(=O)Nc3ccc(C(=O)NO)cc3)ccc2c1 [givinostat]
Summary of the method: as §1

vemurafenib = compound: CCCS(=O)(=O)Nc1ccc(F)c(C(=O)c2c[nH]c3ncc(-c4ccc(Cl)cc4)cc23)c1F [vemurafenib]
Summary of the method: as §1

Measured: log2 fold change

HSBP1 (UniProt O75506)
inactive: ibrutinib -0.077 | [1] 0.016 | barasertib 0.155

HOXB4 (UniProt P17483)
inactive: [2] -0.008 | [1] 0.082 | Nexturastat A 0.063

HOOK2 (UniProt Q96ED9)
inactive: IRAK-1-4 Inhibitor I 0.094 | [2] 0.031 | pinometostat -0.003 | [3] 0.084 | [4] 0.022 | [5] 0.018 | Nexturastat A -0.147 | [6] -0.098

HSPBP1 (UniProt Q9NZL4)
inactive: [2] -0.028 | Nexturastat A -0.021

HMCES (UniProt Q96FZ2)
inactive: ibrutinib 0.169 | [7] -0.121 | ralimetinib -0.169 | [2] 0.062 | [8] -0.081 | [9] 0.018 | [1] 0.068 | [3] 0.314 | [10] 0.044 | [11] 0.05 | [4] -0.102 | Nexturastat A -0.044 | [6] 0.097 | [12] -0.203 | givinostat -0.025 | barasertib 0.089

HYOU1, A0A494C039
inactive: ibrutinib -0.086 | [7] 0.098 | [2] 0.126 | [8] 0.051 | [1] -0.031 | [3] -0.304 | [10] -0.024 | Nexturastat A 0.262 | vemurafenib 0.466 | [12] 0.061 | givinostat 0.083 | barasertib 0.017

ICOSLG isoform 2 (UniProt O75144)
inactive: ibrutinib 0.275 | [8] 0.477 | [4] 0.192 | vemurafenib 0.397 | [6] -0.084 | [12] -0.243 | givinostat -0.153 | barasertib 0.135

HPS1 (UniProt Q92902)
inactive: ibrutinib -0.021 | [7] -0.07 | ralimetinib -0.034 | [8] -0.004 | [9] 0.11 | [1] -0.011 | [3] 0.06 | [10] -0.102 | [11] 0.046 | [4] -0.062 | vemurafenib -0.028 | [6] -0.058 | [12] -0.412 | givinostat 0.046 | barasertib 0.036

ICE2 (UniProt Q659A1)
inactive: ibrutinib 0.029 | [7] -0.092 | [2] -0.028 | [8] -0.169 | Nexturastat A 0.134 | vemurafenib -0.17 | givinostat 0.117 | barasertib -0.038

HSF1 (UniProt Q00613)
inactive: ibrutinib -0.115 | [7] -0.178 | [2] -0.185 | [8] -0.29 | [1] 0.05 | [3] -0.313 | [10] -0.031 | [4] -0.002 | Nexturastat A 0.003 | vemurafenib 0.169 | [6] 0.222 | [12] -0.399 | givinostat 0.163 | barasertib 0.088

HNRNPD (UniProt D6RF44)
inactive: [8] 0.16 | givinostat 0.05

HPF1 (UniProt Q9NWY4)
inactive: [2] 0.13 | Nexturastat A 0.052

ID1 (UniProt P41134)
inactive: ibrutinib 0.095 | ralimetinib -0.009 | [2] -0.235 | [8] -0.194 | [9] -0.187 | [1] -0.179 | [3] 0.029 | [11] -0.121 | Nexturastat A 0.351 | [12] -0.344 | givinostat 0.276 | barasertib -0.002

HOOK1 (UniProt Q9UJC3)
inactive: [7] -0.197 | [2] 0.087 | [4] 0 | Nexturastat A -0.011 | vemurafenib 0.008 | [6] 0.001

ICA1 isoform 2 (UniProt Q05084)
inactive: IRAK-1-4 Inhibitor I 0.066 | [7] -0.038 | ralimetinib -0.391 | [2] -0.073 | [8] -0.123 | [9] -0.118 | pinometostat 0.108 | [11] 0.039 | [5] 0.012 | Nexturastat A 0.024 | givinostat 0.008

HMGXB4 (UniProt Q9UGU5)
inactive: [2] 0.18 | [4] 0.008 | Nexturastat A 0.192 | [6] 0.018

HSPBAP1 (UniProt Q96EW2)
inactive: IRAK-1-4 Inhibitor I 0.079 | [7] 0.127 | [8] 0.011 | pinometostat -0.128 | [5] 0.03 | vemurafenib -0.005 | givinostat -0.116

HSCB (UniProt Q8IWL3)
inactive: IRAK-1-4 Inhibitor I -0.049 | [7] 0.184 | ralimetinib 0.004 | [2] -0.007 | [8] -0.06 | [9] 0.045 | pinometostat 0.138 | [1] -0.009 | [3] -0.104 | [10] 0.064 | [11] -0.078 | [4] 0.019 | [5] -0.051 | Nexturastat A -0.22 | vemurafenib 0.054 | [6] -0.009 | [12] 0.084 | givinostat 0.202

Quoted at random: 2 records from the list
ICA1 isoform 2 (UniProt Q05084)
inactive: IRAK-1-4 Inhibitor I 0.066 | [7] -0.038 | ralimetinib -0.391 | [2] -0.073 | [8] -0.123 | [9] -0.118 | pinometostat 0.108 | [11] 0.039 | [5] 0.012 | Nexturastat A 0.024 | givinostat 0.008

HOOK1 (UniProt Q9UJC3)
inactive: [7] -0.197 | [2] 0.087 | [4] 0 | Nexturastat A -0.011 | vemurafenib 0.008 | [6] 0.001

Continued:

HOMER2 (UniProt Q9NSB8)
inactive: [7] 0.062 | [2] 0.18 | [3] 0.104 | Nexturastat A 0.107 | vemurafenib -0.255 | [12] -0.011

HPS4 isoform 4 (UniProt Q9NQG7)
inactive: IRAK-1-4 Inhibitor I 0.06 | ralimetinib -0.176 | [8] -0.025 | [9] 0.119 | pinometostat 0.024 | [1] 0.004 | [3] 0.243 | [11] 0.302 | [5] 0.047 | givinostat -0.027

HOMER3 (UniProt Q9NSC5)
inactive: [8] 0.054 | [10] -0.162 | [12] -0.123 | givinostat -0.048

HOXD9 (UniProt P28356)
inactive: [7] -0.006 | [8] -0.125 | vemurafenib 0.059 | givinostat -0.044

HSP90AA2P (UniProt Q14568)
inactive: [3] -0.202
